In assay [1] the target is DNA-PKcs (human (endogenous in HeLa)) (UniProt P78527). As to the kind of experiment: co-IP; HeLa cell lysates immunoprecipitated with anti-DNA-PKcs, anti-PDLIM1 antibodies or mouse IgG; immunoblot for PDLIM1 and DNA-PKcs; endogenous proteins.
The target in assay [2] is Ku80 (construct of the GST pull-down) (UniProt P13010). Nature of the assay: pull-down; GST pull-down assay; which partner carried GST is not told in the text shown.

The chains behind the UniProt entries cited, without tags or fusion partners.
UniProt P78527: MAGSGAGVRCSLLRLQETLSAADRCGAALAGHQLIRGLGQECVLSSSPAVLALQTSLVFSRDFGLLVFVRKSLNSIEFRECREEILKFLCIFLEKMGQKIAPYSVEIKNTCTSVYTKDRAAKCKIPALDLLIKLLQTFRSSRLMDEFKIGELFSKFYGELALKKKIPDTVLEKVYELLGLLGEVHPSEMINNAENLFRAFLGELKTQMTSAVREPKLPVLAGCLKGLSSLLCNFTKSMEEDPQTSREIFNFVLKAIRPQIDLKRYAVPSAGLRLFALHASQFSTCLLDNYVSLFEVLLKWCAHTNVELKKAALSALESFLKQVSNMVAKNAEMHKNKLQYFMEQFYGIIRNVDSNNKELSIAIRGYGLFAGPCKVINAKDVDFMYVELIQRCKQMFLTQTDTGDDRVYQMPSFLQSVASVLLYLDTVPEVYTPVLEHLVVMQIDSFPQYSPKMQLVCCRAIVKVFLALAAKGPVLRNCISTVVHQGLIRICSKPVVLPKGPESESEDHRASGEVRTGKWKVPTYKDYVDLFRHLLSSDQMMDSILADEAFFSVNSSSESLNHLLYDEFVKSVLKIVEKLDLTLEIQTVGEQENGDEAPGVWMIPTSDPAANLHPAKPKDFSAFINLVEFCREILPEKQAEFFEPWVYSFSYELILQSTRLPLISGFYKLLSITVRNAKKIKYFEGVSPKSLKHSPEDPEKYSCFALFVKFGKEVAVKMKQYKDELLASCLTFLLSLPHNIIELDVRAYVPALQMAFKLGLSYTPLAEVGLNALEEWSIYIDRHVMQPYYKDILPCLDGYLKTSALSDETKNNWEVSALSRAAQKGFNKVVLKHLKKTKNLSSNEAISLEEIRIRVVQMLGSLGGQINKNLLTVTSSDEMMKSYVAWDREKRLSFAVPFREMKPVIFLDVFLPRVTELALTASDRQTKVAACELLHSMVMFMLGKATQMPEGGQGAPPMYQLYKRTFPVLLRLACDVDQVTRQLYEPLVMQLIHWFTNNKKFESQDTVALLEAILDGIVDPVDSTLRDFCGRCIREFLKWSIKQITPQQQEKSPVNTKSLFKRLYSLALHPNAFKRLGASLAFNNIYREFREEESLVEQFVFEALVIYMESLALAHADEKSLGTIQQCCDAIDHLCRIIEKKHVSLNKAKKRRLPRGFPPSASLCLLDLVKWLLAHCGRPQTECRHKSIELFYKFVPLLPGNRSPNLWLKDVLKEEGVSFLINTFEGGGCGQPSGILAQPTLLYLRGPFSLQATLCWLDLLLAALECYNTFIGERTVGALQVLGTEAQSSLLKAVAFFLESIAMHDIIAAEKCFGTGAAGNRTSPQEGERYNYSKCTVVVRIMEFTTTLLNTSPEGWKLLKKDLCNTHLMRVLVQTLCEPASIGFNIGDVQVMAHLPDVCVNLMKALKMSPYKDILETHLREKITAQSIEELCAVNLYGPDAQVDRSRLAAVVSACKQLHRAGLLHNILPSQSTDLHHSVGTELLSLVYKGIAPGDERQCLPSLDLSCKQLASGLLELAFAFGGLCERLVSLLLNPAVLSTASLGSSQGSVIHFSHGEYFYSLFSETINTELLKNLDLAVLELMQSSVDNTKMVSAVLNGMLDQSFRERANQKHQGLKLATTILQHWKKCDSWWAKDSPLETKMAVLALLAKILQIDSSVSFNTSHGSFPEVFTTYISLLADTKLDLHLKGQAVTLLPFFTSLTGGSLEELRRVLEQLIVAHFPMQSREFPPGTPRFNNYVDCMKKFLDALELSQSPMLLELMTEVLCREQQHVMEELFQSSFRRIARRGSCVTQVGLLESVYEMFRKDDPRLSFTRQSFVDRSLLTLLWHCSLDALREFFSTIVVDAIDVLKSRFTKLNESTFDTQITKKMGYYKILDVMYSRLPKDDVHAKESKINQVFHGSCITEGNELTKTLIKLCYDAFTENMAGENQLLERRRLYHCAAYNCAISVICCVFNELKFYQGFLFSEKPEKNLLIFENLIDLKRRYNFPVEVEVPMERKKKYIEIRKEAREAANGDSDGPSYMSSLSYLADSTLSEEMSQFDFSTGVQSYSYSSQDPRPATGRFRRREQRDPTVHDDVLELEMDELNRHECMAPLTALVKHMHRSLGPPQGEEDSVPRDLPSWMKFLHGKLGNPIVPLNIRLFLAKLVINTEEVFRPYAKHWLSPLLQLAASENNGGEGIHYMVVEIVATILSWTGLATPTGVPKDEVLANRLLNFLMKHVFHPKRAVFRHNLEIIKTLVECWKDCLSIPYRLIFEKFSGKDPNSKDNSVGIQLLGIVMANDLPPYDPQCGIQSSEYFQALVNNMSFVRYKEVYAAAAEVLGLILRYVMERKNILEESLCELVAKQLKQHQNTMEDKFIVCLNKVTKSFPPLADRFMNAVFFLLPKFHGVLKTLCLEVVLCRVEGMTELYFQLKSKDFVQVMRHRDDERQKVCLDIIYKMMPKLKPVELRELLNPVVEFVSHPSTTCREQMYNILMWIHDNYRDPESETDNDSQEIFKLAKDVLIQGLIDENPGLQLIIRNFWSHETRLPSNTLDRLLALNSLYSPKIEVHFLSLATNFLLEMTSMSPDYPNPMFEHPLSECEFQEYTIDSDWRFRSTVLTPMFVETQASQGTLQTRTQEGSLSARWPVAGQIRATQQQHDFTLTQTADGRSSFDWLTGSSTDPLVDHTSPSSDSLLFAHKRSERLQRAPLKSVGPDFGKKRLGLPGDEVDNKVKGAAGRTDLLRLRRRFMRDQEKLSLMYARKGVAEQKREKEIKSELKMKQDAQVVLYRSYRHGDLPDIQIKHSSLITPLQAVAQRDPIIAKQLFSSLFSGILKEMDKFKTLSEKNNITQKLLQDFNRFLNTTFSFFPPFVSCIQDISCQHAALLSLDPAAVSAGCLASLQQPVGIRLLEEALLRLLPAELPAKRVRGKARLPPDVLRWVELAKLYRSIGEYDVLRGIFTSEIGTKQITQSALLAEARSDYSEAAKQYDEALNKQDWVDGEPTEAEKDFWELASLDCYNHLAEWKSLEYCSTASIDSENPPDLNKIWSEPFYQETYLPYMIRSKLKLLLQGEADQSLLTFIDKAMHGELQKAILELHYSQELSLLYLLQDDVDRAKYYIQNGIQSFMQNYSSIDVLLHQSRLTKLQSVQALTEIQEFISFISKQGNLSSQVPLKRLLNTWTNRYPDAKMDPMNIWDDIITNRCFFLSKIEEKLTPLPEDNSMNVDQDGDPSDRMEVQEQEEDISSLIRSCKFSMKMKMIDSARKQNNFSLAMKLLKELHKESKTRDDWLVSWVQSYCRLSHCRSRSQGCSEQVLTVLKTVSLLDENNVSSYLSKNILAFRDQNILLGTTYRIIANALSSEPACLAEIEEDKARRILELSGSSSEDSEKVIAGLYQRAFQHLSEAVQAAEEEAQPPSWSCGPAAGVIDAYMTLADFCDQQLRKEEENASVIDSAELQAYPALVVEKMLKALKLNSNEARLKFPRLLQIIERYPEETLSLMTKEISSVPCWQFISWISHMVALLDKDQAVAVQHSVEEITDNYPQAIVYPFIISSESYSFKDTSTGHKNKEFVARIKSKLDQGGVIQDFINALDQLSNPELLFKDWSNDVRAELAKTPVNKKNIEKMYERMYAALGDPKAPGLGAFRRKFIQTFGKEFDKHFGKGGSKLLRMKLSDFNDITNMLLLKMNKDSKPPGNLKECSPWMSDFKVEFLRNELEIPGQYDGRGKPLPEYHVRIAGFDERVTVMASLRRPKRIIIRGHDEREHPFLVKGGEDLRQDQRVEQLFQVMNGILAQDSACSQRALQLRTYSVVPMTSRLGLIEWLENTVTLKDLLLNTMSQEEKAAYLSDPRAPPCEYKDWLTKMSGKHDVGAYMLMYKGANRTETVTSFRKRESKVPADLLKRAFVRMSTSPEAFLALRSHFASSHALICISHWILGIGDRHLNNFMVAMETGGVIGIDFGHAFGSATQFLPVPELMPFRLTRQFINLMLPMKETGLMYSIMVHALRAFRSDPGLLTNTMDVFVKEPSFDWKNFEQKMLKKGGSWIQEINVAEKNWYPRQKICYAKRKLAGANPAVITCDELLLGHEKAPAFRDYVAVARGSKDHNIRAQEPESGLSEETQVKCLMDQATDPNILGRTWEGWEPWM
UniProt P13010: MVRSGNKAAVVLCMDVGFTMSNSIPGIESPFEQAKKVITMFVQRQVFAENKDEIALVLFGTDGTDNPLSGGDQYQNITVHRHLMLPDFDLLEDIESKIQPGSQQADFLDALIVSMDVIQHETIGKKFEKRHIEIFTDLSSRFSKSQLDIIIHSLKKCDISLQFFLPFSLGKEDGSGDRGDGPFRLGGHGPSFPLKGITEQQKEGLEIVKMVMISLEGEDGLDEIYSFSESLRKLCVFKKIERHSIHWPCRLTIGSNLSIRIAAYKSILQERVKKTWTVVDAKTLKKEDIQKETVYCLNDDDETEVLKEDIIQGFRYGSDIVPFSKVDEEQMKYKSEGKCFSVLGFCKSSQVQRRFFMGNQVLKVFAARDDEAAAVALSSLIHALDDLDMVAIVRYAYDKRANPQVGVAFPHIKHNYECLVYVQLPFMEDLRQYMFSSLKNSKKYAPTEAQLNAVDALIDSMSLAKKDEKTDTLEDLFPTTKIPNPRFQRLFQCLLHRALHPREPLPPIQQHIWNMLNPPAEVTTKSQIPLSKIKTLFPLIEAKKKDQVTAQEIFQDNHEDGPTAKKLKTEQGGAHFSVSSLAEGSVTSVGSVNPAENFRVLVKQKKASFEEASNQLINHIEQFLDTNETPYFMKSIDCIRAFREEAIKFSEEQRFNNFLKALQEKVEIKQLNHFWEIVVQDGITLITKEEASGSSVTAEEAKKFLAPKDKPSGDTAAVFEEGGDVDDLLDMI

No constants are given. Whether binding was seen depends on the method and setting. Binding seen in cells or lysates may run through a third protein. Some binding calls cover weakened binding; strength is not graded here. For some assays here: Sequences can lack the tags named with a protein.

The results in this text go back to PMC11283213.

B1: PDZ and LIM domain protein 1 (PDLIM1) (protein, UniProt O00151 1-329)
chain: MTTQQIDLQGPGPWGFRLVGGKDFEQPLAISRVTPGSKAALANLCIGDVITAIDGENTSNMTHLEAQNRIKGCTDNLTLTVARSEHKVWSPLVTEEGKRHPYKMNLASEPQEVLHIGSAHNRSAMPFTASPASSTTARVITNQYNNPAGLYSSENISNFNNALESKTAASGVEANSRPLDHAQPPSSLVIDKESEVYKMLQEKQELNEPPKQSTSFLVLQEILESEEKGDPNKPSGFRSVKAPVTKVAASIGNAQKLPMCDKCGTGIVGVFVKLRDRHRHPECYVCTDCGTNLKQKGHFFVEDQIYCEKHARERVTPPEGYEVVTVFPK
Regarding B1, the binding entry in assay [1] is on record as “binds”.

B2: PDLIM1 (construct of the GST pull-down) (protein, UniProt O00151 1-329)
chain: B1 chain
For B2, the binding result in assay [2] was “binds”.
